In patent publication US8217084B2, “Medicinal products incorporating bound organosulfur groups” (Allium Vitalis Incorporated, priority 2004, dated 2012):
At least one compound was matched to its structure with a doubt left.

Experiments:
[1] = pH dependence of reaction rate with cysteine
[2] = 8 mg/kg, final 2 weeks of high fructose diet; control gained another 10%; cited from earlier work
[3] = 8 mg/kg final 2 weeks, end of 5 weeks, cited from earlier work

## C=CCS[S+]([O-])CC=C (centres unmarked) [Allicin, DiAllylThioSulfinate]
[1]
  dependence of reaction rate with cysteine on pH: independent of pH over the range of 8-10
[2]
  loss in weight: 3%
[3]; control +13.5%
  percentage increase in blood pressure: +5.2%
[3]; control +113%
  percentage increase in triglycerides: +6.8%
[3]; control +252%
  percentage increase in insulin: +62%
